Laboratory results as given in ChEMBL document CHEMBL1148661, “SAR studies: designing potent and selective LXR agonists” (Bioorg Med Chem Lett, 2006).

Biological target: T1, Peroxisome proliferator-activated receptor delta (Homo sapiens, UniProt Q03181)
T1 sequence (Q03181 whole entry): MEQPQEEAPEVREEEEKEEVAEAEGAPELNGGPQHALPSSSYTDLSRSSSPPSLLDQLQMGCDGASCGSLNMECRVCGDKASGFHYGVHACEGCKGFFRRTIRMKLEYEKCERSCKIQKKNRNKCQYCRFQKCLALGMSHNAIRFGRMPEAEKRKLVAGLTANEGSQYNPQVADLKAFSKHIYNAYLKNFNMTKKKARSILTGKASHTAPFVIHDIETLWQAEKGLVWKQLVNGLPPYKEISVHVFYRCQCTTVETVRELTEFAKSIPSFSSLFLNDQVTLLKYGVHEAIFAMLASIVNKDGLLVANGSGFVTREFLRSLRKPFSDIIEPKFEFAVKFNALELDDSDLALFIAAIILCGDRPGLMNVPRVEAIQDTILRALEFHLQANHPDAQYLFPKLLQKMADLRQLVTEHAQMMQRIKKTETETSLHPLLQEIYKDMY

Row | IC50 [nM] | Compound
1 | 79 | CCCc1c(OCCCn2nnc3cc(CC(=O)O)ccc32)ccc2c(C(F)(F)F)noc12
2 | 24 | CCCc1c(OCCCn2ncc3cc(CC(=O)O)ccc32)ccc2c(C(F)(F)F)noc12
